In PubChem BioAssay AID1671190 (National Center for Advancing Translational Sciences (NCATS), 2021):
Where “and” joins values, the source holds several entries; their conditions need not be identical. Identical values can stand only once. Among all 580,000 compounds or so, about 6,100 (1.1%) were called active. This list was built around the results that the source calls inconclusive (neither active nor inactive); the mix of calls is not that of the screen. The call rests on the fitted dose curve; in most records, active means well fitted inhibition curve with a large enough effect; inconclusive means small, poorly fitted or top-dose-only effect, or another doubt; inactive means no such curve, though single readings can be large or run the other way. Potencies beside an inconclusive call are fits to weak or partial responses and may not hold up.

Amino acid sequences for entries named in this document (tags omitted). A change or cut given only in a name is not applied to a line headed by its entry.
UniProt P18054: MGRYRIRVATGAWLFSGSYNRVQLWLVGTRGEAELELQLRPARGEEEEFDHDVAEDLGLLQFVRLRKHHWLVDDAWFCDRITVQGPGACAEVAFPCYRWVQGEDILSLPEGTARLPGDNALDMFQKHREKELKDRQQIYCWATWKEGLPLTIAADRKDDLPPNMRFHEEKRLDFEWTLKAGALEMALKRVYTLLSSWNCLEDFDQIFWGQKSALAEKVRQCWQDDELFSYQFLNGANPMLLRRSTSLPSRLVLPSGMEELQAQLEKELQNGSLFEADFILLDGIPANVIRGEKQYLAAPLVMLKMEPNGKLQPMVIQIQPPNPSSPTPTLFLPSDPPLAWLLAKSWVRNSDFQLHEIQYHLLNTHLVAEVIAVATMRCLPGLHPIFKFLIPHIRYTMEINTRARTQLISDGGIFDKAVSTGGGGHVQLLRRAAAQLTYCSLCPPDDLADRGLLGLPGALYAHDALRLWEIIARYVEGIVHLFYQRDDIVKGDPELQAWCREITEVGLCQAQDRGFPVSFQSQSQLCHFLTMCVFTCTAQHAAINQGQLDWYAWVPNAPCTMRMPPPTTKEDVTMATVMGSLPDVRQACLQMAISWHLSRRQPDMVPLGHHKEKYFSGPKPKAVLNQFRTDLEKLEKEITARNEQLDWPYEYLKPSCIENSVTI

What follows are molecules tested against Polyunsaturated fatty acid lipoxygenase ALOX12 (Homo sapiens) (UniProt P18054) (assay: Primary qHTS assay for inhibitors of human arachidonate 12S-lipoxygenase (ALOX12): Round 2). Details: purified 12hLO, xylenol orange hydroperoxide absorbance; series mostly up to 108 µM.
Procedure, shortened: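 Hydroperoxide product was detected by ferrous iron/xylenol orange as the 573 to 405 nm absorbance ratio. Arachidonic acid at 40 uM (final) was turned over for 30 min at room temperature by 150 nM human 12hLO, pH 7.0 Hepes buffer, after 15 min compound preincubation.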
Potency means the concentration at half of the fitted maximal effect.

Compound | Potency
COc1ccnc(CSC(N)=Nc2ccc(F)cc2)c1 | inconclusive: 22.4 µM [inhibitor, partial curve, poor fit]
CCc1cccc(NS(=O)(=O)c2ccc3c(c2)CC(C)N3C(=O)C2CC2)c1 (stereo not drawn) | inconclusive: 126 µM [inhibitor, single point]
O=C(Nc1cccc(C(F)(F)F)c1)N[C@H]1CO[C@H]2[C@@H]1OC[C@@H]2n1cc(-c2ccccn2)nn1 | inactive
Cc1noc(-c2cn(C3CCN(C(=O)Cc4cccc(Cl)c4)CC3)nn2)n1 | inconclusive: 28.2 µM [inhibitor, partial curve]
CCCCC(=O)Nc1ccc(N2CCCC2)cc1 | inconclusive: 25.1 µM [inhibitor, partial curve, poor fit]
COc1ccc(N2CCN(C(=O)C3CCCN(c4ncnc5c4nc4n5CCCCC4)C3)CC2)cc1 (stereo not drawn) | inactive
CC(=O)c1cc(CC=C(C)C)c(O)c(CC=C(C)C)c1O | inconclusive: 44.7 µM [inhibitor, partial curve, poor fit]
CCOc1ccccc1CCCN1CC2(CCNCC2)CCC1=O | inactive
COc1ccc(C(=O)c2c(NC(C)=O)sc3c2CCN(C(=O)OC(C)(C)C)C3)cc1 | inconclusive: 6.31 µM [inhibitor, partial curve, poor fit]
CC(C)(C)c1cc(CN2CCCCC2)cc(C(C)(C)C)c1O | inconclusive: 0.355 µM [inhibitor, full curve, poor fit]
O=c1[nH]c2ccc(Cl)cc2c(-c2ccccc2)c1SC(=S)N1CCOCC1 | inactive
CCN(CC)CCn1c(=S)[nH]c2cc(Cl)ccc2c1=O | inconclusive: 89.1 µM [inhibitor, partial curve, poor fit]
CCN=C1S/C(=C\c2cn(CC(=O)NCc3ccco3)c3ccccc23)C(=O)N1CC | inconclusive: 112 µM [inhibitor, partial curve, poor fit]
O=C1C2=C(c3ccccc31)[N+](=O)C1CCCCC1N2[O-] (stereo not drawn) | inconclusive: 39.8 µM [inhibitor, partial curve, poor fit]
COc1ccccc1Cc1c(-c2cccc(Br)c2)nc2ccc(Cl)cn12 | inactive
COc1ccccc1OCc1ccc(C(=O)OC2CCCCC2)o1 | inconclusive: 50.1 µM [inhibitor, partial curve, poor fit]
CCN(CC)C(=O)c1sc(NC(=O)C2c3ccccc3Oc3ccccc32)c(C#N)c1C | inconclusive: 89.1 µM [inhibitor, single point]
CC1CN(C2=N/C(=C/c3ccc4c(c3)OCO4)C(=O)N2)CC(C)O1 (stereo not drawn) | inconclusive: 22.4 µM [inhibitor, partial curve, poor fit]
COCCn1cnnc1SCC(=O)Nc1cc(OC)c([N+](=O)[O-])cc1C | inactive
Cc1ccc(N=CC=C2OC(C)(C)C(C)(C)O2)cc1 | active: 35.5 µM
CCCc1cc(=O)n2[nH]c(NCc3c(F)cccc3Cl)nc2n1 | inconclusive: 63.1 µM [inhibitor, partial curve, poor fit] and inconclusive: 25.1 µM [inhibitor, partial curve, poor fit]
CC(=O)Nc1cc(-c2ccccc2)cn2c(-c3ccc(F)c(Cl)c3)cnc12 | inconclusive: 89.1 µM [inhibitor, single point]

Compound | Potency
Cc1nnc(N2CCc3ccccc3C2)[nH]c1=O | inactive
CCCC(=O)NC(c1cccs1)c1cc(Cl)c2cccnc2c1O (stereo not drawn) | inactive
COc1ccc(F)c(F)c1C(=O)c1cnc(NC2CCN(S(C)(=O)=O)CC2)nc1N | inactive
CC(OC(=O)c1ccc(O)cc1)C(=O)Nc1cc(C(F)(F)F)ccc1Cl (stereo not drawn) | inconclusive: 126 µM [inhibitor, single point]
CCC(C)NC(=O)COCc1cc(-c2ccc3c(c2)OCO3)on1 (stereo not drawn) | inconclusive: 44.7 µM [inhibitor, partial curve, poor fit]
CCCc1nnc2n1N=C(c1ccc(C)cc1)CS2 | inconclusive: 39.8 µM [inhibitor, partial curve, poor fit]
COc1ccc(N2CCN(S(=O)(=O)c3ccc4c(c3)C(C(C)C)C(=O)N4)CC2)cc1 (stereo not drawn) | inconclusive: 10 µM [inhibitor, partial curve, poor fit]
CCC(CC)NC(=O)COC(=O)c1cc(S(=O)(=O)N(CC)CC)ccc1N1CCCCC1 | inconclusive: 112 µM [inhibitor, partial curve, poor fit]
C#Cc1ccc([C@@H]2C=C(C(=O)OCC=C)O[C@H](OCc3ccc(CO)cc3)C2)cc1 | inconclusive: 17.8 µM [inhibitor, partial curve]
NC(=O)COC(=O)c1cc(-c2ccc(-c3ccccc3)cc2)nc2ccccc12 | inactive
Cc1c(F)cc(C(N)=O)cc1NS(=O)(=O)c1ccc(C(F)(F)F)cc1 | inactive
O=C1CSC(c2cn(-c3ccccc3)nc2-c2ccccc2)N1Cc1ccco1 (stereo not drawn) | active: 44.7 µM
COc1ccc(C(C)=O)c(OC(=O)c2ccc(F)cc2F)c1 | inconclusive: 0.501 µM [inhibitor, full curve, poor fit]
Cc1cn2nc(N)c3ccccc3c2n1 | inactive
COc1cccc(COc2ccc3c(C)c(Cc4ccccc4)c(=O)oc3c2)c1 | inactive
COc1cc(C2NC(=O)NC(C)=C2C(=O)OC2CCCCC2)cc(Br)c1O (stereo not drawn) | inconclusive: 79.4 µM [inhibitor, single point]
CC(=O)OCC(=O)Nc1ccccc1C | inconclusive: 7.94 µM [inhibitor, full curve, poor fit]
C[C@@H]1CN([C@@H](C)CO)C(=O)c2cccc(NC(=O)Nc3ccc(F)cc3)c2O[C@@H]1CN(C)Cc1ccc(Oc2ccccc2)cc1 | inconclusive: 70.8 µM [inhibitor, single point]
Cc1nc(-c2cnccn2)n(CC(=O)Nc2cccc(Cl)c2)c(=O)c1C | inactive
COc1ccc2cc(C(=O)N3CCN(Cc4ccccc4C)CC3)c(C)nc2c1 | inactive
CCC(C)NC(=O)c1ccccc1NC(=O)C1COc2ccccc2O1 (stereo not drawn) | inactive
